Reference: PubChem BioAssay AID248 (DTP/NCI, 2004)
The list does not hold the whole screen: it is rich in T/C values a quarter to a half above the control, in often repeated tests (any T/C) and in doses without a T/C. Further doses and runs are listed elsewhere. T/C gives the treated animals as a percentage of the vehicle group. Some doses have a count of surviving animals in place of a T/C: the source holds a T/C of zero for them, seemingly a mark for toxic or unscored doses. Some survivor counts are full or nearly so, which does not show that the dose was tolerated: survival well below the control is almost never listed, so the zero probably covers shortened survival too. Counts of survivors are from the toxicity check (mostly the fifth day) where no day follows; animals may have died later. Schedules are NCI's codes, read here as Q, the interval in days (D) or hours (H), X, the number of doses. Some schedules carry Z or #; the key to these is not given. For survival time, the PubChem record calls one and a half times the control and up active, and a quarter to a half above the control has no call in these data; cut-offs in other NCI protocols can differ. Some T/C values are followed by the survivors on the day toxicity was checked, most often the fifth; without a count, all were alive then. Some doses were run more than once; the results are listed from low to high.

Tested on: L1210 leukemia ip in BDF1 mice, survival T/C
Test: NCI In Vivo Anticancer Drug Screen. Data for tumor model L1210 Leukemia (intraperitoneal) in B6D2F1 (BDF1) mice
Conditions: T/C endpoint: mean survival time, higher T/C = longer survival

## O=NN(CCCl)C(=O)NCCCl
dose: 7.0 mg/kg/injection, schedule: Q01DX009 (ip), vehicle: saline + alcohol
  T/C: 285, 303, 306, 314 % of control
dose: 7.0 mg/kg/injection, schedule: Q07DX Z (oral), vehicle: saline
  T/C: 134 % of control
dose: 7.5 mg/kg/injection, schedule: Q01DX001 (ip), vehicle: saline, evaluated on day 5
  T/C: 141 % of control
dose: 7.5 mg/kg/injection, schedule: Q01DX001 (ip), vehicle: saline, evaluated on day 60
  T/C: 141 % of control
dose: 8.0 mg/kg/injection, schedule: Q01DX001 (ip), vehicle: distilled water + alcohol
  T/C: 147 % of control
dose: 8.0 mg/kg/injection, schedule: Q01DX001 (ip), vehicle: other
  T/C: 147 % of control
dose: 8.0 mg/kg/injection, schedule: Q01DX009 (ip), vehicle: Klucel (hydroxypropylcellulose) (HPC)
  T/C: 174, 287, 289, 310 % of control
dose: 8.0 mg/kg/injection, schedule: Q01DX009 (ip), vehicle: carboxymethylcellulose (CMC)
  T/C: 142 % of control
dose: 8.0 mg/kg/injection, schedule: Q01DX009 (ip), vehicle: saline + alcohol
  T/C: 123, 165, 166, 191, 279, 292, 300 % of control
dose: 8.0 mg/kg/injection, schedule: Q01DX009 (ip), vehicle: saline, evaluated on day 30
  T/C: 148, 185, 202, 210, 226, 238, 246, 258, 268, 271, 285, 291, 480 % of control
dose: 8.0 mg/kg/injection, schedule: Q01DX009 (ip), vehicle: saline, evaluated on day 60
  T/C: 286, 452, 537, 600 % of control
dose: 8.0 mg/kg/injection, schedule: Q04DX002 (ip), vehicle: saline + alcohol
  T/C: 163, 174, 178, 180 % of control
dose: 8.0 mg/kg/injection, schedule: Q#A X Z (oral), vehicle: saline
  T/C: 142 % of control
dose: 8.4 mg/kg/injection, schedule: Q01DX001 (ip), vehicle: saline
  T/C: 138 % of control
dose: 9.75 mg/kg/injection, schedule: Q01DX001 (ip), vehicle: saline
  T/C: 138 and 149 % of control
dose: 10.0 mg/kg/injection, schedule: Q01DX001 (ip), vehicle: saline, evaluated on day 30
  T/C: 188 % of control
dose: 10.0 mg/kg/injection, schedule: Q01DX001 (ip), vehicle: saline, evaluated on day 45
  T/C: 182 % of control
dose: 10.0 mg/kg/injection, schedule: Q01DX001 (ip), vehicle: saline, evaluated on day 60
  T/C: 564 % of control
dose: 10.0 mg/kg/injection, schedule: Q01DX001 (ip), vehicle: saline, run until all animals had died
  T/C: 166 % of control
dose: 10.0 mg/kg/injection, schedule: Q01DX001 (oral), vehicle: saline
  T/C: 140 % of control
dose: 10.0 mg/kg/injection, schedule: Q01DX009 (ip), vehicle: saline
  T/C: 113, 173, 215, 275 % of control
dose: 10.5 mg/kg/injection, schedule: Q01DX010 (ip), vehicle: saline
  T/C: 133 % of control
dose: 11.6 mg/kg/injection, schedule: Q01DX001 (ip), vehicle: saline
  T/C: 126 % of control
dose: 12.0 mg/kg/injection, schedule: Q01DX001 (oral), vehicle: saline
  T/C: 149 % of control
dose: 12.0 mg/kg/injection, schedule: Q01DX006 (ip), vehicle: saline, evaluated on day 8
  T/C: 131 % of control
dose: 12.0 mg/kg/injection, schedule: Q01DX006 (ip), vehicle: saline, evaluated on day 32
  T/C: 131 % of control
dose: 12.0 mg/kg/injection, schedule: Q01DX Z (ip), vehicle: saline
  T/C: 149 % of control
dose: 12.0 mg/kg/injection, schedule: Q## X Z (ip), vehicle: saline
  survivor count: 9 of 10
dose: 13.0 mg/kg/injection, schedule: Q01DX001 (ip), vehicle: saline + alcohol
  T/C: 143 % of control
dose: 14.0 mg/kg/injection, schedule: Q01DX009 (ip), vehicle: saline + alcohol
  T/C: 113, 120, 121, 150 % of control
dose: 14.0 mg/kg/injection, schedule: Q01DX Z (ip), vehicle: carboxymethylcellulose (CMC)
  T/C: 147 % of control
dose: 14.0 mg/kg/injection, schedule: Q12DX003 (ip), vehicle: saline
  T/C: 141 % of control
dose: 14.0 mg/kg/injection, schedule: Q14DX003 (ip), vehicle: saline
  T/C: 145 % of control
dose: 15.0 mg/kg/injection, schedule: Q01DX001 (ip), vehicle: saline, evaluated on day 5
  T/C: 252 % of control
dose: 15.0 mg/kg/injection, schedule: Q01DX001 (ip), vehicle: saline, evaluated on day 30
  T/C: 175 and 255 % of control
dose: 15.0 mg/kg/injection, schedule: Q01DX001 (ip), vehicle: saline, evaluated on day 45
  T/C: 265 % of control
dose: 15.0 mg/kg/injection, schedule: Q01DX001 (ip), vehicle: saline, evaluated on day 60
  T/C: 252 % of control
dose: 16.0 mg/kg/injection, schedule: Q01DX009 (ip), vehicle: Klucel (hydroxypropylcellulose) (HPC)
  T/C: 106, 117, 119, 120 % of control
dose: 16.0 mg/kg/injection, schedule: Q01DX009 (ip), vehicle: saline + alcohol
  T/C: 94, 96, 107, 108, 116, 121, 137 % of control
dose: 16.0 mg/kg/injection, schedule: Q01DX009 (ip), vehicle: saline, evaluated on day 30
  T/C: 109, 113, 117, 121 [5 of 6 alive], 125, 126, 126 [5 of 6 alive], 128, 131, 135, 148, 155, 326 % of control
dose: 16.0 mg/kg/injection, schedule: Q01DX009 (ip), vehicle: saline, evaluated on day 60
  T/C: 125, 126, 133, 138 % of control
dose: 16.0 mg/kg/injection, schedule: Q04DX002 (ip), vehicle: saline + alcohol
  T/C: 200, 222, 259, 303 % of control
dose: 16.0 mg/kg/injection, schedule: Q#A X Z (oral), vehicle: saline
  T/C: 131 % of control
dose: 18.0 mg/kg/injection, schedule: Q01DX001 (ip), vehicle: clinical formulation
  T/C: 190, 265, 269, 362 % of control
dose: 20.0 mg/kg/injection, schedule: Q01DX001 (ip), vehicle: saline + alcohol, evaluated on day 5
  T/C: 249, 255, 378 % of control
dose: 20.0 mg/kg/injection, schedule: Q01DX001 (ip), vehicle: saline + alcohol, evaluated on day 45
  T/C: 230 and 368 % of control
dose: 20.0 mg/kg/injection, schedule: Q01DX001 (ip), vehicle: saline + alcohol, evaluated on day 60
  T/C: 272 and 465 % of control
dose: 20.0 mg/kg/injection, schedule: Q01DX001 (ip), vehicle: saline, evaluated on day 30
  T/C: 256 % of control
